Source: ChEMBL document CHEMBL5674883, “The Heterochromatin Landscape in Migrating Cells and the Importance of H3K27me3 for Associated Transcriptome Alterations” (Cells, 2018)
This continues a long series; more values of the same kind are listed elsewhere.

By UniProt entry, the sequences of proteins in these tests, tags left out.
UniProt Q61188, whole entry: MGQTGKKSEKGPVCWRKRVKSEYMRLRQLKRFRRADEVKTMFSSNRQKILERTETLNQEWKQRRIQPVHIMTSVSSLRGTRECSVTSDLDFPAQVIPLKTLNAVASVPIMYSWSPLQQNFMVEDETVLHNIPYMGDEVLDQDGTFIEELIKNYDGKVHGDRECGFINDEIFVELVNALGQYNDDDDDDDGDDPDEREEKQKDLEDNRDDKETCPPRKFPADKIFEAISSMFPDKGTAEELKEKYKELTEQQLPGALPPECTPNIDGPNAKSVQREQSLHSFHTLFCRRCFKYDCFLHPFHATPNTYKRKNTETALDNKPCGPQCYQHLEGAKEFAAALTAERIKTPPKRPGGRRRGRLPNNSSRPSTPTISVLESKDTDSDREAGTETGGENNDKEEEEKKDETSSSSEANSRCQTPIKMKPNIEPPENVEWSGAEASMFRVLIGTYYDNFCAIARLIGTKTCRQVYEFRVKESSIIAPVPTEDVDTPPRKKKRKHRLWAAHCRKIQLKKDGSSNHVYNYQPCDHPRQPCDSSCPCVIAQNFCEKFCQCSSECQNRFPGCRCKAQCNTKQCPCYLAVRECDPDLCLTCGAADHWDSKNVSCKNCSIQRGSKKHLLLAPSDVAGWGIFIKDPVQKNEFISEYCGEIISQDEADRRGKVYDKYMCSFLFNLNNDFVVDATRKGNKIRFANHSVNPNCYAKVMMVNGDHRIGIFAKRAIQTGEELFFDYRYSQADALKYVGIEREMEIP

Experiments:
Assay type in all cases: cell-based
[1] = molecular target: T1, RNA polymerase II (Mus musculus) (UniProt P08775+Q8CFI7+P97760+A0A3Q4L2S8+Q80UW8+P61219+P62488+Q923G2+P60898+O08740+Q63871+P62876); assay: Inhibition of RNA polymerase II in mouse B16-F1 migrating cells assessed as fold change in Aes-RNA stability at 0.1 mM measured by ChIP-seq analysis relative to control cells
[2] = molecular target: T1, RNA polymerase II (Mus musculus); assay: Inhibition of RNA polymerase II in mouse B16-F1 migrating cells assessed as fold change in Vps54-RNA stability at 0.1 mM measured by ChIP-seq analysis relative to control cells
[3] = molecular target: T1, RNA polymerase II (Mus musculus); assay: Inhibition of RNA polymerase II in mouse B16-F1 migrating cells assessed as fold change in Hk1-RNA stability at 0.1 mM measured by ChIP-seq analysis relative to control cells
[4] = molecular target: T1, RNA polymerase II (Mus musculus); assay: Inhibition of RNA polymerase II in mouse B16-F1 migrating cells assessed as fold change in Itgb1-RNA stability at 0.1 mM measured by ChIP-seq analysis relative to control cells
[5] = molecular target: T1, RNA polymerase II (Mus musculus); assay: Inhibition of RNA polymerase II in mouse B16-F1 migrating cells assessed as fold change in Tmem192-RNA stability at 0.1 mM measured by ChIP-seq analysis relative to control cells
[6] = molecular target: T1, RNA polymerase II (Mus musculus); assay: Inhibition of RNA polymerase II in mouse B16-F1 migrating cells assessed as fold change in Arl6ip6-RNA stability at 0.1 mM measured by ChIP-seq analysis relative to control cells
[7] = molecular target: T1, RNA polymerase II (Mus musculus); assay: Inhibition of RNA polymerase II in mouse B16-F1 migrating cells assessed as fold change in Zfp445-RNA stability at 0.1 mM measured by ChIP-seq analysis relative to control cells
[8] = molecular target: T1, RNA polymerase II (Mus musculus); assay: Inhibition of RNA polymerase II in mouse B16-F1 migrating cells assessed as fold change in Zdhhc2-RNA stability at 0.1 mM measured by ChIP-seq analysis relative to control cells
[9] = molecular target: T1, RNA polymerase II (Mus musculus); assay: Inhibition of RNA polymerase II in mouse B16-F1 migrating cells assessed as fold change in Rasa1-RNA stability at 0.1 mM measured by ChIP-seq analysis relative to control cells
[10] = molecular target: T1, RNA polymerase II (Mus musculus); assay: Inhibition of RNA polymerase II in mouse B16-F1 migrating cells assessed as fold change in C330027C09Rik-RNA stability at 0.1 mM measured by ChIP-seq analysis relative to control cells
[11] = molecular target: T1, RNA polymerase II (Mus musculus); assay: Inhibition of RNA polymerase II in mouse B16-F1 migrating cells assessed as fold change in Uba3-RNA stability at 0.1 mM measured by ChIP-seq analysis relative to control cells
[12] = molecular target: T1, RNA polymerase II (Mus musculus); assay: Inhibition of RNA polymerase II in mouse B16-F1 migrating cells assessed as fold change in Uevld-RNA stability at 0.1 mM measured by ChIP-seq analysis relative to control cells
[13] = molecular target: T1, RNA polymerase II (Mus musculus); assay: Inhibition of RNA polymerase II in mouse B16-F1 migrating cells assessed as fold change in Rps28-RNA stability at 0.1 mM measured by ChIP-seq analysis relative to control cells
[14] = molecular target: T1, RNA polymerase II (Mus musculus); assay: Inhibition of RNA polymerase II in mouse B16-F1 migrating cells assessed as fold change in Fbxl5-RNA stability at 0.1 mM measured by ChIP-seq analysis relative to control cells
[15] = molecular target: T1, RNA polymerase II (Mus musculus); assay: Inhibition of RNA polymerase II in mouse B16-F1 migrating cells assessed as fold change in Rrp7a-RNA stability at 0.1 mM measured by ChIP-seq analysis relative to control cells
[16] = molecular target: T1, RNA polymerase II (Mus musculus); assay: Inhibition of RNA polymerase II in mouse B16-F1 migrating cells assessed as fold change in Luc7l3-RNA stability at 0.1 mM measured by ChIP-seq analysis relative to control cells
[17] = molecular target: T1, RNA polymerase II (Mus musculus); assay: Inhibition of RNA polymerase II in mouse B16-F1 migrating cells assessed as fold change in Rp9-RNA stability at 0.1 mM measured by ChIP-seq analysis relative to control cells
[18] = molecular target: T1, RNA polymerase II (Mus musculus); assay: Inhibition of RNA polymerase II in mouse B16-F1 migrating cells assessed as fold change in Akap11-RNA stability at 0.1 mM measured by ChIP-seq analysis relative to control cells
[19] = molecular target: T1, RNA polymerase II (Mus musculus); assay: Inhibition of RNA polymerase II in mouse B16-F1 migrating cells assessed as fold change in Nr1h2-RNA stability at 0.1 mM measured by ChIP-seq analysis relative to control cells
[20] = molecular target: Histone-lysine N-methyltransferase EZH2 (Mus musculus) (UniProt Q61188); assay: Inhibition of EZH2 in mouse B16-F1 migrating cells assessed as fold change in H3K27me3-independent regulated Pou3f1-mRNA expression at 3 uM measured by ChIP-seq analysis relative to control cells
[21] = molecular target: Histone-lysine N-methyltransferase EZH2 (Mus musculus) (UniProt Q61188); assay: Inhibition of EZH2 in mouse B16-F1 migrating cells assessed as fold change in H3K27me3-buffered regulated Ppm1k-mRNA expression at 3 uM measured by ChIP-seq analysis relative to control cells
[22] = molecular target: Histone-lysine N-methyltransferase EZH2 (Mus musculus) (UniProt Q61188); assay: Inhibition of EZH2 in mouse B16-F1 migrating cells assessed as fold change in H3K27me3-buffered regulated Mum1-mRNA expression at 3 uM measured by ChIP-seq analysis relative to control cells
[23] = molecular target: Histone-lysine N-methyltransferase EZH2 (Mus musculus) (UniProt Q61188); assay: Inhibition of EZH2 in mouse B16-F1 migrating cells assessed as fold change in H3K27me3-buffered regulated Sdc4-mRNA expression at 3 uM measured by ChIP-seq analysis relative to control cells
[24] = molecular target: Histone-lysine N-methyltransferase EZH2 (Mus musculus) (UniProt Q61188); assay: Inhibition of EZH2 in mouse B16-F1 migrating cells assessed as fold change in H3K27me3-independent regulated Mpp2-mRNA expression at 3 uM measured by ChIP-seq analysis relative to control cells
[25] = molecular target: Histone-lysine N-methyltransferase EZH2 (Mus musculus) (UniProt Q61188); assay: Inhibition of EZH2 in mouse B16-F1 migrating cells assessed as fold change in H3K27me3-independent regulated Sfn-mRNA expression at 3 uM measured by ChIP-seq analysis relative to control cells
[26] = molecular target: Histone-lysine N-methyltransferase EZH2 (Mus musculus) (UniProt Q61188); assay: Inhibition of EZH2 in mouse B16-F1 migrating cells assessed as fold change in H3K27me3-independent regulated Mis18bp1-mRNA expression at 3 uM measured by ChIP-seq analysis relative to control cells
[27] = molecular target: Histone-lysine N-methyltransferase EZH2 (Mus musculus) (UniProt Q61188); assay: Inhibition of EZH2 in mouse B16-F1 migrating cells assessed as fold change in H3K27me3-dependent regulated 2810410L24Rik-mRNA expression at 3 uM measured by ChIP-seq analysis relative to control cells
[28] = molecular target: Histone-lysine N-methyltransferase EZH2 (Mus musculus) (UniProt Q61188); assay: Inhibition of EZH2 in mouse B16-F1 migrating cells assessed as fold change in H3K27me3-independent regulated Celsr3-mRNA expression at 3 uM measured by ChIP-seq analysis relative to control cells
[29] = molecular target: Histone-lysine N-methyltransferase EZH2 (Mus musculus) (UniProt Q61188); assay: Inhibition of EZH2 in mouse B16-F1 migrating cells assessed as fold change in H3K27me3-buffered regulated Egln3-mRNA expression at 3 uM measured by ChIP-seq analysis relative to control cells
[30] = molecular target: Histone-lysine N-methyltransferase EZH2 (Mus musculus) (UniProt Q61188); assay: Inhibition of EZH2 in mouse B16-F1 migrating cells assessed as fold change in H3K27me3-buffered regulated Snhg1-mRNA expression at 3 uM measured by ChIP-seq analysis relative to control cells

In the case of `OC[C@H]1O[C@@H](n2cnc3cc(Cl)c(Cl)cc32)[C@H](O)[C@@H]1O`, the log2FC [1] was 0.48, the log2FC [2] was -0.46 and the log2FC [3] was 0.6. It also gave a log2FC [4] of -0.48, a log2FC [5] of 0.44 and a log2FC [6] of -0.73. It also gave a log2FC [7] of -0.8, a log2FC [8] of -0.49 and a log2FC [9] of -0.59. The log2FC [10] was -0.93, the log2FC [11] was -0.48 and the log2FC [12] was -0.4. It also gave a log2FC [13] of 0.51, a log2FC [14] of -0.44 and a log2FC [15] of 0.39. It also gave a log2FC [16] of -0.74, a log2FC [17] of 0.43 and a log2FC [18] of -0.55. For the same compound, the log2FC [19] was 0.48.
With `CCCc1cc(C)[nH]c(=O)c1CNC(=O)c1cc(-c2ccnc(N3CCN(C)CC3)c2)cc2c1cnn2C(C)C` the log2FC [20] was 1.91, the log2FC [21] was -0.76 and the log2FC [22] was -0.55. For the same compound, the log2FC [23] was -0.55, the log2FC [24] was 0.55 and the log2FC [25] was 0.52. The log2FC [26] was -0.66, the log2FC [27] was -0.33 and the log2FC [28] was 1.17. For the same compound, the log2FC [29] was -0.94 and the log2FC [30] was -0.96.
